Broadly, the AC50 is the concentration at which the activity in the assay is half-maximal.

This assay can be described thus: qHTS Assay to Find Inhibitors of Chronic Active B-Cell Receptor Signaling. To be noted: ABC-DLBCL IkBa-CBG/CBR reporter, luminescence ratio (green luciferase fused to IkBa over red control in TMD8 lymphoma cells), 4 h. An outline of the steps:
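TMD8 human ABC-DLBCL cells with doxycycline-inducible IκBα–green luciferase fusion and unfused red luciferase, in 0.5% FBS medium; compounds up to 46 uM, 4 h at 37C. Green/red luminescence ratio, filter-overlap corrected, fitted to concentration-response curves.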

Where [1] appears, read: measured here: CBR red luminescence, cell number.
Where [2] appears, read: measured here: IkBa-CBG green luminescence.

Each structure is given as a SMILES string. Where “and” joins values, the source holds several entries; their conditions need not be identical. Equal entries are not always repeated. Some of the results follow. Shown are side measurements of this screen, not its main read-out; they come without a call. The list favours compounds with an active or inconclusive main result. Potencies come from curve fits of mixed quality, noted in brackets.

`Cc1ccc(Nc2nc3c([nH]2)c(=O)[nH]c(=O)n3C)cc1`: the AC50 under setting [1] is 1.84 µM [falling, single point]. On the same count and under the same terms, in the case of `Cc1oc2c(C)c3oc(=O)c4c(c3cc2c1C)CCCC4` it was 0.562 µM [falling, full curve]; in that of `O=C(CSCc1ccc(F)cc1)N1CCN(c2ccccc2)CC1`, 3.98 µM [rising, full curve, poor fit] and 22.4 µM [rising, single point]. Take `CCCCC(=O)O[C@]1(C(=O)CO)CC[C@H]2[C@@H]3CCC4=CC(=O)CC[C@]4(C)[C@H]3[C@@H](O)C[C@@]21C`: the AC50 was 25.9 µM [rising, partial curve, poor fit] under setting [1] and 23.1 µM [falling, partial curve, poor fit] under setting [2]. Regarding `CC(=O)c1ccc(N2CCN(c3ccc(S(=O)(=O)NCCCN(C)C)cc3[N+](=O)[O-])CC2)cc1`, under setting [1], the AC50 was 22.4 µM [falling, single point]. Still for that read-out and setting: as for `CC(C)OC(=O)c1cc(=O)[nH]c2ccccc12`, the figure is 5.01 µM [rising, full curve]; as for `Cc1ccc(NC(=O)CSc2ncc3ccccn23)cc1`, 0.891 µM [rising, full curve, poor fit]; as for `CCOC(=O)C1CCN(C(=O)COC(=O)c2cc([N+](=O)[O-])ccc2N2CCOCC2)CC1`, 11.6 µM [rising, partial curve, poor fit]. With `O=C1C(Cl)=C(NC(=O)c2ccccc2)C(=O)C(Cl)=C1NC(=O)c1ccccc1`, the concentration at half-maximal activity (AC50) was 35.5 µM [falling, single point] under setting [1] and 3.55 µM [falling, single point] under setting [2]. With `Cc1ccc(-n2nc3cc(Cl)c(NC(=O)c4ccco4)cc3n2)cc1`, the AC50 under setting [1] was 16.4 µM [rising, partial curve, poor fit]. On the same count and under the same terms, in the case of `O=C(OCc1cc(=O)n2ccsc2n1)c1ccccc1O` it was 20.6 µM [falling, single point]. Turning to `CC(C)CCn1c(N)c(S(=O)(=O)c2cccs2)c2nc3ccccc3nc21`, the AC50 under setting [1] was 23.1 µM [falling, partial curve]. For the molecule `CCCC(=O)NCCc1cc2ccc(OC)cc2[nH]c1=O`, the AC50 under setting [1] is 25.9 µM [falling, single point]. Same read-out and setting: as for `CCOC(=O)CSc1nnc(-c2c[nH]c3ccccc23)o1`, the figure is 10 µM [falling, partial curve]; as for `CC(C)Cc1cc(C(=O)Nc2cccnc2)no1`, 23.1 µM [falling, partial curve, poor fit]. Regarding `Cc1c(C(=O)CN2CCSCC2)c2ccccc2n1C`, under setting [1], the AC50 was 7.08 µM [rising, full curve, poor fit].

`CC(N=C(NS(=O)(=O)c1ccc(Cl)cc1)c1ccccc1)C(=O)O` (centres undefined): the AC50 under setting [1] was 1.84 µM [rising, partial curve, poor fit]. Regarding `COc1ccccc1/C=N/NC(=O)CCn1cnc2ccccc21`, the AC50 under setting [1] was 5.8 µM [falling, partial curve]. On the same count and under the same terms, in the case of `O=C(c1ccccc1)C1CCN(c2ncccc2[N+](=O)[O-])CC1` it was 0.282 µM [rising, full curve, poor fit]; in that of `O=C(N/N=C/c1ccsc1)c1c[nH]c2ccccc12`, 10 µM [falling, partial curve]; in that of `CC(C)CCc1noc(CN2CCC(CCN3CCCC3=O)CC2)n1`, 15.8 µM [rising, single point]. Turning to `Cn1c(/C=C/c2ccc(Br)cc2)c([N+](=O)[O-])c(=O)n(C)c1=O`, under setting [1], the AC50 was 6.31 µM [falling, full curve, poor fit]. The same measure, in the same setting: as for `O=S(=O)(NCC(Nc1ccccc1)c1ccccc1)c1ccc(Cl)cc1` (centres undefined), the figure is 20.6 µM [falling, single point]. Take `CCCCCCCCCn1c2c(c(=N)c3c1CCC3)CCCC2`: the AC50 by setting is: under setting [1], 12.6 µM [falling, partial curve]; under setting [2], 10 µM [rising, partial curve, poor fit]. As to `CCCc1nnc(NC(=O)c2ccc([N+](=O)[O-])cc2)s1`, the AC50 under setting [1] is 1.64 µM [falling, full curve, poor fit].

For `CC(C)c1ccc(C2=CC(c3cccc(Cl)c3)n3ncnc3N2)cc1` (centres undefined), the AC50 under setting [1] was 22.4 µM [falling, single point]. Same read-out and setting: as for `Cc1cccc(NCc2ccccc2O)c1`, the figure is 0.326 µM [rising, partial curve, poor fit]. Take `O=C(NCc1cccnc1)C(=O)Nc1cc2c3c(c1)CC(=O)N3CCC2`: under setting [1], the AC50 was 14.6 µM [rising, partial curve].

Regarding `O=C(CC1SC(=O)N(c2ccccc2)C1=O)Nc1ccc(Cl)cc1` (centres undefined), the AC50 under setting [1] was 3.55 µM [falling, partial curve]. Same read-out and setting: in the case of `COc1ccc(OC)c2sc(NC(=O)c3ccc(S(=O)(=O)N(C)C)cc3)nc12` it was 0.164 µM [falling, full curve, poor fit]. The same measure, in the same setting: as for `CCSc1nc(C)nc2sc(C)c(C)c12`, the figure is 15.8 µM [rising, partial curve, poor fit]; as for `NC(=O)NC(=O)C(Nc1ccc(N2CCCCC2)cc1)c1ccccc1` (centres undefined), 5.01 µM [falling, partial curve]. Take `Cc1cc(C)c2c(CN3CCC(C)CC3)cc(=O)oc2c1`: the AC50 under setting [1] was 7.08 µM [rising, partial curve, poor fit]. Same read-out and setting: in the case of `COc1ccc(OC)c(CNc2nc3ccccc3n2CCN2CCCCC2)c1` it was 32.6 µM [falling, single point]; in that of `CCOc1ccc(N=C2NC(=O)S/C2=C\c2ccc(N(C)C)cc2)cc1`, 0.794 µM [rising, full curve, poor fit]. As to `O=C(Nc1ccc2c(c1)CCC2)Nc1ccc(F)cc1F`, the AC50 under setting [1] was 0.891 µM [falling, full curve, poor fit]. Still for that read-out and setting: as for `COc1cccc2cc(C(=O)N3CCc4ccccc4C3)c(=O)oc12`, the figure is 31.6 µM [falling, partial curve, poor fit]; as for `COc1cc(NC(=S)N2CCCCC2C)cc(OC)c1OC` (centres undefined), 35.5 µM [rising, single point].

With `Brc1ccccc1-c1nnc(CSc2nnnn2-c2ccccc2)o1`, the AC50 under setting [1] was 6.51 µM [rising, single point]. On the same count and under the same terms, in the case of `CC(=O)Nc1ccc(Nc2cc(C)nc3c(-c4ccc(Cl)cc4)c(C)nn23)cc1` it was 29.1 µM [falling, single point]. In the case of `O=C(Cc1ccc(-c2ccccc2)cc1)NCc1ccccc1`, the half-maximal activity concentration (AC50) is 1.3 µM [rising, full curve] under setting [1] and 1.84 µM [falling, full curve] under setting [2]. In the case of `COc1ccccc1-c1nc(SCC(=O)N2CCOCC2)n[nH]1`, under setting [1], the half-maximal activity concentration (AC50) was 5.01 µM [falling, full curve]. The same measure, in the same setting: as for `CCn1c(=O)cc(SCC(=O)N2CCN(Cc3ccc4c(c3)OCO4)CC2)c2ccccc21`, the figure is 2.82 µM [rising, single point]; as for `Cc1ccc(/C=C2/NC(=O)N(Cc3ccccc3)C2=O)s1`, 25.1 µM [falling, single point]; as for `CCOC(=O)c1c(-c2ccc(C)o2)csc1NC(=O)CN1CCN(CC)CC1`, 2.59 µM [rising, partial curve]. Take `Cc1ccc(S(=O)(=O)/C(C#N)=C/c2c(N3CCCCC3)nc3ccccn3c2=O)cc1`: the AC50 under setting [1] was 0.447 µM [falling, full curve, poor fit] and the AC50 under setting [2] is 3.98 µM [rising, single point].

As to `CC(=O)c1sc(NC(=O)C=C(C)C)nc1C`, the AC50 was 3.66 µM [falling, partial curve] under setting [1] and 1.84 µM [rising, partial curve, poor fit] under setting [2].

In the case of `CCOc1cc(NCCN2CCOCC2)c([N+](=O)[O-])cc1OCC`, the AC50 under setting [1] was 6.31 µM [rising, single point].

Regarding `CCOC1(OCC)C(c2ccc(N)cc2)C(C#N)(C#N)C1(OCC)OCC` (centres undefined), the AC50 under setting [1] was 15.8 µM [falling, single point]. `CC1CCN(c2oc(-c3ccccc3F)nc2C#N)CC1`: the AC50 under setting [1] is 7.31 µM [rising, partial curve, poor fit]. Still for that read-out and setting: as for `CCOC(=O)c1cc(-c2ccc(/C=N\n3cnnc3)o2)ccc1Cl`, the figure is 1.3 µM [falling, full curve, poor fit]; as for `C/C(=N\Nc1nc2c(s1)CCCC2)c1ccccc1`, 3.26 µM [rising, partial curve, poor fit]; as for `COc1cccc(CC(=O)NCc2ccc3c(c2)CCN3C(C)=O)c1`, 3.55 µM [rising, full curve, poor fit]. Same read-out and setting: in the case of `CCOc1cc2c(C#N)c(N3CCCCC3)nc(N)c2c(N)n1` it was 1.46 µM [falling, partial curve, poor fit]; in that of `CCN(CC)CC(=O)NCC1(c2ccccc2)CCOCC1`, 29.1 µM [falling, single point]; in that of `COc1ccc(C(=O)Nc2nc3ccc(OC)cc3s2)cc1`, 0.126 µM [falling, full curve, poor fit].

`COc1cccc(CNS(=O)(=O)c2cc(Br)cc3c2N(C(C)=O)C(C)C3)c1` (centres undefined): the AC50 under setting [1] is 0.517 µM [falling, partial curve, poor fit]. As to `CCCSc1ccc([C@@H]2[C@@H]3C(=O)N(C)C(=O)[C@@H]3[C@]3(C(=O)OC)CCCN23)cc1OC`, the AC50 under setting [1] is 29.1 µM [falling, single point]. Still for that read-out and setting: in the case of `COc1ccc(Cl)cc1C(=O)NNC(=O)c1cccs1` it was 0.92 µM [falling, full curve]; in that of `O=C(Nc1ccc(Cl)c(Cl)c1)Nc1ccccn1`, 0.355 µM [rising, partial curve, poor fit]. On to `Cc1cc(C)cc(Nc2ncc3c(n2)CC(c2ccco2)CC3=O)c1` (centres undefined), for which the AC50 under setting [1] was 0.13 µM [rising, full curve, poor fit]. As for `Cc1ccn2c(Nc3ccc4c(c3)OCO4)c(-c3ccc(O)cc3)nc2c1`, under setting [1], the AC50 was 22.4 µM [falling, single point]. The same measure, in the same setting: as for `N#C/C(=C\c1ccc(-c2ccc(C(=O)O)cc2)o1)C(=O)NCC1CCCO1` (centres undefined), the figure is 2.31 µM [falling, full curve].

The values are drawn from PubChem BioAssay AID493014 (National Center for Advancing Translational Sciences (NCATS), 2011).
